For seven molecules, binding results are on record in article doi:10.1101/2021.10.10.463828 (bioRxiv, 2021).

The chains behind the UniProt entries cited, without tags or fusion partners. Residues count along the entry.
UniProt P0CS90, residues 24-654: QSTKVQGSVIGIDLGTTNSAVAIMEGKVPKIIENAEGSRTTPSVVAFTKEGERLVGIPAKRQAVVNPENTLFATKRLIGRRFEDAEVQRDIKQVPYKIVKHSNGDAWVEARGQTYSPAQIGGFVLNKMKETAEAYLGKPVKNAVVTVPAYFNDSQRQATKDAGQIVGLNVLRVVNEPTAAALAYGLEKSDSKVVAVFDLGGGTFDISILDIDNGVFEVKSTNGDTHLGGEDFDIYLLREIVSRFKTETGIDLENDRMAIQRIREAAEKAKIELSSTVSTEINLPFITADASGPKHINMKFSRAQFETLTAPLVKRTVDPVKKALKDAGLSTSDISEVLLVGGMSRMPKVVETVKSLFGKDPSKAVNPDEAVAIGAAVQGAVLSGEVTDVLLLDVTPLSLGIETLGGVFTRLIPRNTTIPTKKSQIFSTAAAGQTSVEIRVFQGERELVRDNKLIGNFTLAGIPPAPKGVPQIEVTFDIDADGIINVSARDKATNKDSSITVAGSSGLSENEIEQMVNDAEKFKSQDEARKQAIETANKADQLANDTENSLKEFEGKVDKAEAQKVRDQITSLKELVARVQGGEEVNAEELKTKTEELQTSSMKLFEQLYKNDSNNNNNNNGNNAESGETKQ

Results are given in words; binding and its absence hold for the method and conditions named. In cells and extracts the contact can be indirect. Some entries that bind do so weakly or less than the wild type. Tags and fused reporters may be left off the sequences shown.

Test in all cases: pull-down
The target of experiment [1] is T1, Tim17 with an affinity tag, endogenous TIM complex (S. cerevisiae) (UniProt P39515).
T1 sequence: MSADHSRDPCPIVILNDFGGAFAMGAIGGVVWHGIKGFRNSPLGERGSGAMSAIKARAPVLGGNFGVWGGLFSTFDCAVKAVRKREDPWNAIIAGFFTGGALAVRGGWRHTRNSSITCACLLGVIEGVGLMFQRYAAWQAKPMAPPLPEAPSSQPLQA

Experiment [2] concerns the target T2, Tim17 with an affinity tag, overexpressed (S. cerevisiae) (UniProt P39515).
T2 sequence (chain, disulfide bond between Cys10 and Cys77): T1 sequence

The target of experiment [3] is T3, Tim21 with an affinity tag (S. cerevisiae) (UniProt P53220).
T3 sequence: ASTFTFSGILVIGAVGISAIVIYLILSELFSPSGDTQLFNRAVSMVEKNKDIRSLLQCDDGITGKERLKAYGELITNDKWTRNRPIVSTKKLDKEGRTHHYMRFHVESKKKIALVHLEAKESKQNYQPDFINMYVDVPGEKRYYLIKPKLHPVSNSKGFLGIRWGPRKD

Experiment [4] deals with T4, Tim21 with an affinity tag (S. cerevisiae), P53220.
T4 chain: T3 sequence
Particulars: remark: other sources report otherwise.

As for “mitochondrial heat-shock protein 70 (endogenous) (from UniProt P0CS90 24-654)”, the binding entry in experiment [1] is on record as “binds”; in experiment [2], “binds”; in experiment [3] it was “no binding”.

B1: Pam16, overexpressed (protein, UniProt P42949 1-149)
chain: MAHRAFIQVIITGTQVFGKAFAEAYRQAASQSVKQGATNASRRGTGKGEYGGITLDESCKILNIEESKGDLNMDKINNRFNYLFEVNDKEKGGSFYLQSKVYRAAERLKWELAQREKNAKAKAGDASTAKPPPNSTNSSGADNSASSNQ
In the case of B1, the binding result in experiment [2] is listed as “binds”.

B2: Pam16, overexpressed, P42949 1-149 (protein)
chain: B1 chain
For the molecule B2, the binding result in experiment [4] was “no binding”.

B3: Tim23, overexpressed (natural protein)
chain: MSWLFGDKTPTDDANAAVGGQDTTKPKELSLKQSLGFEPNINNIISGPGGMHVDTARLHPLAGLDKGVEYLDLEEEQLSSLEGSQGLIPSRGWTDDLCYGTGAVYLLGLGIGGFSGMMQGLQNIPPNSPGKLQLNTVLNHITKRGPFLGNNAGILALSYNIINSTIDALRGKHDTAGSIGAGALTGALFKSSKGLKPMGYSSAMVAAACAVWCSVKKRLLEK
For B3, the binding result in experiment [1] was “binds”.

B4: Tim21 (endogenous) (protein, UniProt P53220 71-239)
chain: T3 sequence
As to B4, the binding result in experiment [1] is reported as “binds”.

B5: Tim21, overexpressed (protein, UniProt P53220 71-239)
chain: T3 sequence
Regarding B5, the binding result in experiment [2] is on record as “binds”.

B6: Pam18, overexpressed, Q07914 1-168 (protein)
chain: MSSQSNTGNSIEAPQLPIPGQTNGSANVTVDGAGVNVGIQNGSQGQKTGMDLYFDQALNYMGEHPVITGFGAFLTLYFTAGAYKSISKGLNGGKSTTAFLKGGFDPKMNSKEALQILNLTENTLTKKKLKEVHRKIMLANHPDKGGSPFLATKINEAKDFLEKRGISK
Turning to B6, the binding entry in experiment [4] is reported as “no binding”.
